Molecules are shown by their SMILES. Counter-ions that a name gives are not always drawn. Over roughly 1,000 compounds, “cFRET/donor change relative to DMSO, normalised to beta-lapachone positive control (supercomplex I-IV assembly)” has its median near 0.18; the lowest 2% begin near -1. Some of the results follow.

The record followed here is the supplement of paper PMC9877034.

The subject of the assay is C2C12 (NDUFB8-AcGFP / COX8A-DsRed-Monomer FRET reporter). The assay is described as follows: cFRET/donor change relative to DMSO, normalised to beta-lapachone positive control (supercomplex I-IV assembly) (fraction of beta-lapachone effect); higher = more respiratory supercomplex assembly. The following applies: 40 µM; 24 h. On the procedure: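 Cells were treated with 40 uM compound for 24 h and imaged on an IN Cell Analyzer 6000. Corrected FRET was divided by donor signal (cFRET/donor) and measured in two replicate experiments. The score is (mean cFRET/donor of compound - mean DMSO) / (mean beta-lapachone 40 uM - mean DMSO). Compounds flagged for prominent cell death, abnormal morphology or decreased cell number were excluded.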
Take `C/C=C(/C)C(=O)O[C@H]1C(C)=C2[C@H]([C@@H]1OC(=O)CCCCCCC)[C@@](C)(OC(C)=O)C[C@H](OC(=O)CCC)[C@@]1(O)[C@H]2OC(=O)[C@@]1(C)O` [Thapsigargin]: the cFRET/donor change is 0.0653.
For `c1ccc2c(c1)OCC(C1=NCCN1)O2` (stereo not drawn) [Idazoxan hydrochloride], the cFRET/donor change was -0.861.
Then `CCCN1CCC[C@@H]2Cc3n[nH]cc3C[C@H]21` [(-)-Quinpirole hydrochloride], with -0.238.
Turning to `CC(C)c1cccc(C(C)C)c1O` [Propofol], the cFRET/donor change turned out to be 0.289.
As to `OCc1cnc[nH]1` [4-Imidazolemethanol hydrochloride], the cFRET/donor change was determined as 0.055.
As to `O=C(O)CC[N+](=O)[O-]` [3-Nitropropionic acid], the cFRET/donor change turned out to be 0.571.
In the case of `CN1C[C@H](CNC(=O)OCc2ccccc2)C[C@@H]2c3cccc4c3c(cn4C)C[C@H]21` [Metergoline], the cFRET/donor change amounted to 0.515.
Take `CC(C)Oc1cccnc1N(C)C1CCN(Cc2ccccc2)CC1`: the cFRET/donor change came to 0.414.
Then `CCCN(CCC)C1CCc2ccc(O)cc2C1` (racemic) [(±)-7-Hydroxy-DPAT hydrobromide], with 0.268.
For the compound `NCC1(CC(=O)O)CCCCC1` [Gabapentin], the cFRET/donor change is -0.025.
The same measure for `CC(O)(CS(=O)(=O)c1ccc(F)cc1)C(=O)Nc1ccc(C#N)c(C(F)(F)F)c1` (stereo not drawn) [Bicalutamide (CDX)]: 0.549; for `Cc1ncsc1CCCl` [Chlormethiazole hydrochloride]: 0.036.
For `CCC1(c2ccc(N)cc2)CCC(=O)NC1=O` (racemic) [(±)-p-Aminoglutethimide], the cFRET/donor change is -0.016.
The same measure for `O=C(O)c1nn(Cc2ccc(Cl)cc2Cl)c2ccccc12` [Lonidamine]: -0.0272; for `Cc1o[nH]c(=O)c1CC(N)C(=O)O` (racemic) [(±)-AMPA hydrobromide]: 0.0791.
As to `CC[C@@H](CO)NC(=O)[C@@H]1C=C2c3cccc4[nH]cc(c34)C[C@H]2N(C)C1` [Methylergonovine maleate], the cFRET/donor change was 0.273.
The same measure for `CCC1(C2=NCCN2)Cc2ccccc2O1` (stereo not drawn) [Efaroxan hydrochloride]: 0.439; for `CCOC(=O)c1ncn2c1[C@@H]1CCCN1C(=O)c1cc(OC)ccc1-2`: 0.212.
The same measure for `C[N+]1(C)[C@@H]2CC(OC(=O)[C@H](CO)c3ccccc3)C[C@H]1[C@@H]1O[C@@H]12` (single isomer, unassigned; (-)) [(-)-Scopolamine methyl nitrate]: 0.0188; for `COc1ccc2c(c1O)-c1cccc3c1[C@@H](C2)N(C)CC3` [R(-)-Apocodeine hydrochloride]: 0.979; for `O=c1[nH]oc2c1CCNC2` [THIP hydrochloride]: 0.0629.
Then `NC(Cc1cc(O)c(O)cc1O)C(=O)O` (racemic) [6-Hydroxy-DL-DOPA], with -0.134.
Compound `CN1CCc2cc(O)cc3c2[C@H]1Cc1ccc(O)c(O)c1-3` [R(-)-2,10,11-Trihydroxyaporphine hybrobromide] yielded a cFRET/donor change of 1.29.
The same measure for `Cn1c(CCCC(=O)O)nc2cc(N(CCCl)CCCl)ccc21` [Bendamustine hydrochloride]: -0.232; for `O=C1CC[C@@]2(O)[C@H]3Cc4ccc(O)c5c4[C@@]2(CCN3CC2CC2)[C@H]1O5` [Naltrexone hydrochloride]: 0.268.
The compound `CC(=O)[C@H]1CC[C@H]2[C@@H]3CC[C@H]4C[C@H](O)CC[C@]4(C)[C@H]3CC[C@]12C` [5alpha-Pregnan-3alpha-ol-20-one] registered a cFRET/donor change of 0.166.
The same measure for `N[C@]1(C(=O)O)CC[C@H](C(=O)O)C1` (racemic) [trans-(±)-ACPD]: 0.0503; for `CC(NC(C)(C)C)C(=O)c1cccc(Cl)c1` (stereo not drawn) [Bupropion hydrochloride]: 0.231.
Compound `CN1[C@@H]2C[C@@H](OC(=O)[C@H](CO)c3ccccc3)C[C@H]1[C@@H]1O[C@@H]12` [(-)-Scopolamine hydrobromide] showed a cFRET/donor change of 0.275.
With `CC(=O)[C@H]1CC[C@H]2[C@@H]3CC[C@H]4C[C@](C)(O)CC[C@]4(C)[C@H]3CC[C@]12C` [Ganaxolone], the cFRET/donor change came to 0.393.
For `NCC(CC(=O)O)c1ccc(Cl)cc1` (racemic) [(±)-Baclofen], the cFRET/donor change is -0.352.
In turn, `N[C@@H]1C[C@H]1c1ccccc1` [Tranylcypromine hydrochloride] yielded a cFRET/donor change of 0.38.
The same measure for `C[C@@H]1O[C@H](C[N+](C)(C)C)C[C@H]1O` (racemic) [(±)-Muscarine chloride]: -0.0405.
In the case of `CP(=O)(O)C1=CCNCC1`, the cFRET/donor change was -0.0291.
In the case of `NC(=O)c1cc(N2CC2)c([N+](=O)[O-])cc1[N+](=O)[O-]`, the cFRET/donor change came to 0.411.
For `C=CCN1CC[C@]23c4c5ccc(O)c4O[C@H]2C(=O)CC[C@@]3(O)[C@H]1C5` [Naloxone hydrochloride], the cFRET/donor change came to 0.241.
`CN1CC[C@]2(CCN3CCc4c(oc5ccccc45)[C@@H]3C2)N(C)C1=O` displayed a cFRET/donor change of 0.551.
Then `N#CC(C#N)=Cc1ccc(O)c(O)c1` [Tyrphostin 23], with 0.0664; and `COc1ccc2[nH]c3c(c2c1)CCNC3` [6-Methoxy-1,2,3,4-tetrahydro-9H-pyrido[3,4b] indole], with -0.133.
Turning to `Cc1cccc(C)c1NC(=O)CN1CCCC1=O` [Nefiracetam], the cFRET/donor change came out at 0.156.
Consider `NC(=O)CI` [Iodoacetamide], for which the cFRET/donor change is -0.0525.
With `COC(=O)N1CCN(C(=O)Cc2ccc(Cl)c(Cl)c2)C(CN2CCCC2)C1` (stereo not drawn), the cFRET/donor change was -0.0482.
In turn, `CC(C)NC(C)Cc1ccc(I)cc1` (stereo not drawn) [Iofetamine hydrochloride] displayed a cFRET/donor change of 0.596.
As for `N=C(NCCC[C@H](N)C(=O)O)N[N+](=O)[O-]` [NG-Nitro-L-arginine], the cFRET/donor change was 0.111.
Then `CCCN(CCC)C1Cc2cc(OC)c(OC)cc2C1`, with 0.0328; and `CC(=O)O[C@H]1C[C@@H]2CC[C@@H]3[C@H](CC[C@@]4(C)[C@H]3C[C@H]([N+]3(C)CCCCC3)[C@@H]4OC(C)=O)[C@@]2(C)C[C@@H]1[N+]1(C)CCCCC1` [Pancuronium bromide], with -0.202; and `CN1CCc2cccc(Cl)c2CC1`, with 0.279.
The same measure for `COC(=O)[C@@H](N)CCCNC(=N)N[N+](=O)[O-]` [NG-Nitro-L-arginine methyl ester hydrochloride]: 0.414.
